# From patent US8536142B2, “Spinosyns for wound healing” (Eli Lilly and Company, priority 2004, dated 2013)
# At least one structure is not confirmed: it was looked up by name or label, or the drawing left a doubt. Where a SMILES comes first, the peptide text is derived from it. [ ]: non-standard residue; d: D form.
# Tested on: vascular response of rat footpad blisters (CGRP, substance P, eNOS effectors)
# Assay: Blister model: effect of sensory nerve peptide antagonists and eNOS inhibitor on the vascular response to 0.5% spinosad
# Format: in vivo
# Experimental: Neurogenic inflammatory responses are assessed using a well-established method (Khalil & Helme, Brain Res. 527: 292-298 (1990)). Anaesthesia is induced in outbred male Sprague-Dawley rats with pentobarbitone sodium (60 mg/kg i.p). General anaesthesia is maintained by supplementary injections of 15 mg/kg. This method of anaesthesia has been shown not to alter the basal vasodilator responses in peripheral microvasculature (Khalil & Helm; Brain Res. 500: 256-262 (1989)). The left jugular vein is cannulated with polyethylene tubing for the intravenous administration of heparin/saline solution or drugs. Body temperature is maintained at 37° C. At the completion of the experiment, the animals are sacrificed by barbiturate overdose.
# Blisters are induced in the middle region of the hindpaw in anaesthetised rats using vacuum pressure of −40 kPa applied for 30 minutes via a metal suction cap heated to 40° C. Once a blister is established, the epidermis (surface epithelium) is removed and a perspex chamber with inlet and outlet ports secured over the blister base. Ringer's solution is perfused over the blister surface and maintained by a peristaltic pump at 4 ml/hr to establish baseline measurements. Relative blood flow is monitored over time by a laser Doppler flowmeter via a probe placed immediately above the blister base and relative blood flux (volts) monitored continuously on a chart recorder. […]
smiles,measurement,setting,value
CC(C)C[C@H](NC(=O)[C@H](CC(C)C)NC(=O)[C@@H](Cc1c[nH]c2ccccc12)NC(=O)[C@H](Cc1ccccc1)NC(=O)[C@@H](Cc1c[nH]c2ccccc12)NC(=O)[C@H](CCC(N)=O)NC(=O)[C@H](CCC(N)=O)NC(=O)[C@@H]1CCCN1C(=O)[C@H](CCCCN)NC(=O)[C@@H]1CCCN1C(=O)[C@H](N)CCCNC(=N)N)C(N)=O [Spantide] (H-[dR]PKPQQ[dW]F[dW]LL-NH2),% contribution of effector to the vascular response of spinosad,"effector blocked by the perfused substance (eNOS, CGRP, Substance P), 0.5% spinosad",34%
same,Blood flow as area under the curve,"substance perfused 10 minutes, then co-perfused with 0.5% spinosad 30 minutes (Control = 0.5% spinosad alone), L-NAME 100 μM, CGRP8-37 1 μM, spantide II 10 μM, mean ± SEM, n = 6",74.9 (±3.6) cm^2
